Results deposited as PubChem BioAssay AID504804 (Drosophila RNAi Screening Center, 2011)
Assay: 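dsRNAs that improve Kc cell survival under doxorubicin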 (primary screen). Cells: Drosophila Kc cells. Knock-down reagent: long dsRNA against Drosophila genes, 0.5 µg dsRNA per well. Timing: 96 h (48 h knock-down, then 48 h drug). Conditions: doxorubicin 5 µg/ml for 48 h, added 48 h after dsRNA. Detection: 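Viability measured as cellular ATP by luminescence after 48 h knock-down then 48 h doxorubicin at 5 µg/ml; unnormalised plate counts for each replicate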. Direction: raw ATP luminescence: higher = more viable cells, protection from doxorubicin. Rule for the call: 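Active when both duplicate wells lie at least 2 SD above the plate mean and protection is confirmed by rescreening and independent dsRNAs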.
The screen tested about 19,000 reagents; shown is an unselected part of those with a known target gene and a result. In the full data, 47 (0.25%) are marked active. 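Signals are raw, not normalised; exact z-scores behind calls not deposited; actives needed confirmation, so some wells reaching 2 SD are inactive.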 A number with no mark means an inactive call. Names joined by + are all predicted targets of the reagent.

no.	target gene	amplicon	SD above plate mean	raw ATP luminescence, replicate 1	raw ATP luminescence, replicate 2
1	CG12035	DRSC08238		64713	77380
2	Sb (Stubble)	DRSC16851		82150	65920
3	CG7542	DRSC10868		36680	41423
4	CG13308	DRSC09979		75877	84763
5	cathD (cathepsin D)	DRSC07588		32493	1.07e5
6	sxc (super sex combs)	DRSC04911		62883	69053
7	CG10713	DRSC09786		73210	67267
8	CG15753 (retired record)	DRSC19718		63110	70390
9	Mst77F (Male-specific transcript 77F)	DRSC11871		77690	58230
10	c(3)G (crossover suppressor on 3 of Gowen)	DRSC15245	2 to 3 SD above plate mean	77057	65740
11	CG16787	DRSC04282		53570	61690
12	CG13748	DRSC06419		42763	79880
13	ReepA (Receptor expression enhancing protein A)	DRSC04572		70870	50080
14	CG30429	DRSC04040		99473	89393
15	CG33235	DRSC19641		3.38e5	3.29e5
16	CG13116	DRSC02214		38577	51680
17	Dysb (Dysbindin)	DRSC10730		37243	25200
18	Trpm (Transient receptor potential cation channel, subfamily M)	DRSC06629		61573	76100
19	CG13083	DRSC02187		62320	64327
20	CG15578	DRSC18066		35000	54560
21	CG15873	DRSC04277		44350	41073
22	Crys (Crystallin)	DRSC03294		1.16e5	82667
23	retn (retained)	DRSC04679		46827	53923
24	nAChRbeta3 (nicotinic Acetylcholine Receptor beta3)	DRSC00325		1.03e5	66300
25	Cpr76Ba (Cuticular protein 76Ba)	DRSC11060		64600	70277
26	CG15167	DRSC02468		51980	58697
27	Top3alpha (Topoisomerase 3alpha)	DRSC03460		75470	55127
28	CG17776	DRSC18136		47360	67730
29	Dh44-R1 (Diuretic hormone 44 receptor 1)	DRSC07172		47110	39223
30	Sgp (Sgroppino)	DRSC02195		83060	90687
31	Gbs-76A (Glycogen binding subunit 76A)	DRSC11081		26423	21373
32	Ir7f (Ionotropic receptor 7f)	DRSC18012		50090	43540
33	Elp2 (Elongator complex protein 2)	DRSC06095		64877	1.07e5
34	simj (simjang)	DRSC10942		42350	51590
35	su(sable) (suppressor of sable)	DRSC18839		41860	46470
36	Cmtr1 (Cap methyltransferase 1)	DRSC18400		23910	37700
37	CG31115	DRSC13692		2.33e5	2.33e5
38	kin17	DRSC11890		58330	56500

Next part (7 carried over from the part before).
no.	target gene	amplicon	SD above plate mean	raw ATP luminescence, replicate 1	raw ATP luminescence, replicate 2
32	Ir7f (Ionotropic receptor 7f)	DRSC18012		50090	43540
33	Elp2 (Elongator complex protein 2)	DRSC06095		64877	1.07e5
34	simj (simjang)	DRSC10942		42350	51590
35	su(sable) (suppressor of sable)	DRSC18839		41860	46470
36	Cmtr1 (Cap methyltransferase 1)	DRSC18400		23910	37700
37	CG31115	DRSC13692		2.33e5	2.33e5
38	kin17	DRSC11890		58330	56500
39	nopo (no poles)	DRSC06918		57027	62953
40	Ars2 (Arsenic resistance protein 2)	DRSC04893		60040	59797
41	lds (lodestar)	DRSC16988		68330	81130
42	CG10041	DRSC14179		57540	57983
43	Dh44 (Diuretic hormone 44)	DRSC12747		73130	65713
44	Dh44 (Diuretic hormone 44)	DRSC16409		64710	54730
45	CG10845	DRSC14272		57960	65480
46	ppan (peter pan)	DRSC17030		43810	44340
47	PSMG1 (Proteasome assembly chaperone 1)	DRSC12297		75203	29347
48	CG10405	DRSC14238		92060	1.17e5
49	mrva (minerva)	DRSC11009		37577	31223
50	grau (grauzone)	DRSC04691		46663	41770
51	CG6785	DRSC02993		83213	58423
52	CG14227	DRSC19584		1.68e5	2.23e5
53	Cpr67Fa2 (Cuticular protein 67Fa2)	DRSC10315		78653	77700
54	CG5853	DRSC01103		2.80e5	2.64e5
55	CG5853	DRSC02906		82790	57940
56	MED23 + CG3700	DRSC04406		41800	42500
57	MED23 + CG3700	DRSC04407		69173	60257
